PubChem BioAssay AID1259308 | NCATS | 2017
In all, the deposit lists about 59,000 reagents; shown is a part drawn at random. Of all reagents, about 1,510 (2.6%) are marked active. 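Calls use total luciferase alone and ignore viability, so some active siRNAs may act by altering cell number.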 Reagents against one gene are numbered here. Not all columns of the deposit are shown.

Assay: 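Candidate targets for better recombinant protein yield in mammalian cells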 (primary screen)
Cells: human HEK293 embryonic kidney cells stably expressing firefly luciferase (HEK-CMV-Luc2-Hygro)
Knock-down reagent: single siRNA against human genes, 0.8 pmol siRNA per well
Time to read-out: 72 h
Measured: 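Luciferase light (ONE-Glo) measured on one replicate plate set and viability (CellTiter-Glo) on the other, scaled to a negative control siRNA, with robust z-scores and luciferase per cell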
Reading the numbers: total luciferase, z-score and total luciferase, % of control: higher = more reporter protein produced
Rule for the call: 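Active when the median/MAD z-score for overall luciferase is greater than 3; a gene was taken forward for validation with new siRNAs if at least two of its three siRNAs passed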
Calls: active = raised luciferase; inactive = no rise

Which result is listed for MRPL19 #1?
total luciferase, z-score: -0.0577; total luciferase, % of control: 80.7; Call: inactive

What did the screen give for MRPL19 #2?
total luciferase, z-score: -0.426; total luciferase, % of control: 73.4; Call: inactive

With MRPL19 #3, how do the results read?
total luciferase, z-score: -0.183; total luciferase, % of control: 78.2; Call: inactive

What is on record for ZC3H11A #1?
total luciferase, z-score: -0.492; total luciferase, % of control: 72.1; Call: inactive

How did the screen score ZC3H11A #2?
total luciferase, z-score: 0.176; total luciferase, % of control: 85.4; Call: inactive

For ZC3H11A #3, how do the results read?
total luciferase, z-score: 1.47; total luciferase, % of control: 111; Call: inactive

With ANAPC15 #1, what does the deposit list?
total luciferase, z-score: 0.411; total luciferase, % of control: 90.1; Call: inactive

What is on record for ANAPC15 #2?
total luciferase, z-score: 1.01; total luciferase, % of control: 102; Call: inactive

Which result is listed for ANAPC15 #3?
total luciferase, z-score: -0.273; total luciferase, % of control: 76.5; Call: inactive

How did the screen score TTI1 #1?
total luciferase, z-score: -0.549; total luciferase, % of control: 71; Call: inactive

With TTI1 #2, what was measured?
total luciferase, z-score: 0.0475; total luciferase, % of control: 82.8; Call: inactive

Which result is listed for TTI1 #3?
total luciferase, z-score: 0.33; total luciferase, % of control: 88.4; Call: inactive

Which result is listed for ERMAP #1?
total luciferase, z-score: 0.463; total luciferase, % of control: 91.1; Call: inactive

For ERMAP #2, what was measured?
total luciferase, z-score: -0.329; total luciferase, % of control: 75.3; Call: inactive

How did the screen score ERMAP #3?
total luciferase, z-score: -0.127; total luciferase, % of control: 79.4; Call: inactive

How did the screen score ZC3H13 #1?
total luciferase, z-score: -1.6; total luciferase, % of control: 50; Call: inactive

What is on record for ZC3H13 #2?
total luciferase, z-score: -1.61; total luciferase, % of control: 49.9; Call: inactive

What did the screen give for ZC3H13 #3?
total luciferase, z-score: -1.77; total luciferase, % of control: 46.8; Call: inactive

What is on record for MT1F #1?
total luciferase, z-score: 0.0125; total luciferase, % of control: 82.1; Call: inactive

How did the screen score MT1F #2?
total luciferase, z-score: 2.38; total luciferase, % of control: 129; Call: inactive

How did the screen score MT1F #3?
total luciferase, z-score: -0.431; total luciferase, % of control: 73.3; Call: inactive

Records listed so far whose gene name begins with A or a (3):
ANAPC15 #1 → total luciferase, z-score: 0.411; total luciferase, % of control: 90.1; Call: inactive
ANAPC15 #2 → total luciferase, z-score: 1.01; total luciferase, % of control: 102; Call: inactive
ANAPC15 #3 → total luciferase, z-score: -0.273; total luciferase, % of control: 76.5; Call: inactive
